Results published in patent US20160046707A1.
Residue numbers refer to the chain shown, from its start. No constants are given. Whether binding was seen depends on the method and setting. Some binding calls cover weakened binding; strength is not graded here. Blank lines part the entries; values can stand above or below the binder they belong to.

Sequences of proteins named here, by UniProt entry; tags and fusion partners are left off. A change or cut given only in a name is not applied to a line headed by its entry.
UniProt P78556: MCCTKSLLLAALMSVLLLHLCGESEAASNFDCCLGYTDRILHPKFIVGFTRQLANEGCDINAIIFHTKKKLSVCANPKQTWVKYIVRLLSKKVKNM

Legend:
[1] = molecular target: human CCL20 anchored via a His-tag (human) (UniProt P78556); assay: ELISA, CCL20 anchored via a His-tag
[2] = molecular target: human CCL20 anchored via a His-tag (human) (UniProt P78556); assay: ELISA on His-tag anchored human CCL20, antibody titrated (x axis 'Ab conc. (ug/ml)', falling from left to right), Abs 450

B2: humanized anti-human CCL20 antibody 36LC3/36HC2 (antibody, human IgG1, kappa, V domains shown)
VH: QVQLVQSGAEVKKPGASVKVSCKASGYTFTNYWMHWVRQAPGQGLEWMGVIDPSDSYTTYAQKFQGRVTMTVDTSTSTVYMELSSLRSEDTAVYYCARGNYGVDYAMDYWGQGTLVTVSS
VL: DIQMTQSPSSLSASVGDRVTITCRASENIYGALNWYQQKPGKAPKLLIYGATNLADGVPSRFSGSGSGRQYSLTISSLQPEDFATYYCQNVLITPYTFGGGTKLEIKR
binding [2]: binds

B3: chimeric 36F7C10 antibody (36F7C10-hFc) (antibody, V domains shown)
VH: QVQLQQPGAELVKPGASVKMSCKASGYTFTNYWMHWVKQRPGQGLEWIGVIDPSDSYTTYNQKFKGKATLTVDTSSSTAYMQLSSLTSEDSAVYYCTRGNYGVDYAMDYWGQGTSVTVSS
VL: DIQMTQSPASLSASVGETVTITCGASENIYGALNWYQRKQGKSPQLLIYGATNLADGMSSRFSGSGSGRQYSLKISSLHPDDVATYYCQNVLITPYTFGGGTKLEIK
binding [2]: binds

Continued, values first:

binding [1]: binds
binding [2]: binds
B1: humanized anti-human CCL20 antibody 36LK3/36HC2 (antibody, human IgG1, kappa, V domains shown)
VH: B2 VH
VL: B2 VL with R24G, Q38R, Q70D, S72T, G100Q

binding [2]: binds
B4: mouse anti-human CCL20 monoclonal antibody 36F7C10 (antibody, V domains shown)
VH: B3 VH
VL: B3 VL
